Tests used:
mice [1] = format: in vivo, mouse; conditions: Atropine 0.25-1 mg/kg; Naloxone 1.25-5 mg/kg
mice [2] = format: in vivo, mouse; conditions: Atropine 2.5-10 mg/kg

**Q.** `CN1[C@@H]2CC[C@H]1C[C@@H](OC(=O)C(CO)c1ccccc1)C2` (some centres unmarked) [Atropine] was tested. Which “effect on Crotoxin-induced analgesia, hotplate test” value (mice [1]) did it give?
**A.** Its value is “no significant effect”.

**Q.** And the “effect on Crotoxin-induced analgesia, acetic acid-writhing test” value (mice [2])?
**A.** Its value is “no significant effect”.

From patent US20070148159A1, “Use of crotoxin as an analgesic - CIP” (priority 2005, published 2007)
